From PubChem BioAssay AID1794845 (National Center for Advancing Translational Sciences (NCATS), 2023)
The whole screen tested about 6,900 compounds, of which fewer than 10 were called active. Calls come from the whole dose curve; as a rule, active = well fitted curve in the direction sought with a large enough effect; inconclusive = small, poorly fitted or top-dose-only effect, or another doubt; inactive = no such curve, though single readings can be large or run the other way. The list shows a part of the results.
Note: % of control where 0% means no effect.

The chains behind the UniProt entries cited, without tags or fusion partners. Where a name states a change or a piece, a line headed by the entry shows the natural chain unless it says otherwise.
UniProt C7C422: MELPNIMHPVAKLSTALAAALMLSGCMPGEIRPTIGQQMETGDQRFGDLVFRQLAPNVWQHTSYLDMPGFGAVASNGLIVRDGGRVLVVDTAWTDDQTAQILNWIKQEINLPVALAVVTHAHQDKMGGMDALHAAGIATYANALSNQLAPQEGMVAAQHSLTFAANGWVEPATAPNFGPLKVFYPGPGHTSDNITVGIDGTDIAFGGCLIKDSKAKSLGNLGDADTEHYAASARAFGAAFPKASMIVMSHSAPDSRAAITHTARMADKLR

What follows are compounds tested against Metallo-beta-lactamase type 2 (Klebsiella pneumoniae) (UniProt C7C422) (assay: qHTS to identify inhibitors of the New Delhi Metallo-beta-lactamase (NDM): primary screen against the NCATS Gemini Collection). Conditions: NDM-1 enzyme, meropenem hydrolysis, absorbance 300 nm; at 38.4 µM (top of the series) unless noted.
Summary of the method: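 NDM-1 at 2 nM final in 50 mM HEPES pH 7.0, 1 uM ZnSO4, 0.01% Tween20, preincubated >30 min with compound. Meropenem 50 uM final added; absorbance at 300 nm after 30 min.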
With `Cc1ccsc1C(=O)NC1CCN(c2cc(-c3ccc(F)cc3)[nH]n2)C1` (stereo not given) the activity % (negative = inhibition) was inactive: -1.05%. `O=C(Cn1ccn2nc(-c3ccc(F)cc3)c(CO)c2c1=O)Nc1ccc(F)cc1F` was tested, and the activity % (negative = inhibition) was inactive: 1.87%. `CCS(=O)(=O)N1CCC2(CC1)CN(c1cccc(F)c1)C2c1ccccc1` (stereo not given) was tested, and the activity % (negative = inhibition) was inactive: 0.315%. `CCn1nc(C)cc1C(=O)N1CCOC[C@H](Oc2cccnc2)C1` was tested, and the activity % (negative = inhibition) was inactive: 9.19% [at 57.5 µM]. In the case of `Cc1nc(N2CCCC2)nc(N2CCC3(CC2)OCCCC3O)c1C` (stereo not given), the activity % (negative = inhibition) is reported as inactive: 5.04%. `O=[S+]([O-])(NCC1CN(Cc2ccc3[nH]ccc3c2)CC12CN(c1ccccc1)C2)c1ccccc1` (stereo not given) was tested, and the activity % (negative = inhibition) was inactive: -2.28%. In the case of `CC(C)Cn1nc(C(=O)O)c2c1CCN(C(=O)CC(C)c1ccccc1)C2` (stereo not given), the activity % (negative = inhibition) is reported as inactive: 15.5%. `Cc1cnc(-c2ccccc2)n1C1CCN(S(C)(=O)=O)CC1` was tested, and the activity % (negative = inhibition) was inactive: -4.41%. `NC1CCCCN(C(=O)c2ccc(Cn3cccn3)o2)C1` (stereo not given) was tested, and the activity % (negative = inhibition) was inactive: 74.2%. For `COc1ccccc1C(=O)NC[C@@H]1C=C(C)[C@H](CC(=O)NCc2ccccn2)C[C@H]1C(C)C`, the activity % (negative = inhibition) was inactive: -0.339%. In the case of `O=C(c1ccco1)N1CCCCC1c1nc(C2CC2)n[nH]1` (stereo not given), the activity % (negative = inhibition) is reported as inactive: -0.0418%. With `CC(C)C1=NOC2(CCN([S+](=O)([O-])c3cccs3)C2)C1` (stereo not given) the activity % (negative = inhibition) was inactive: 5.1%. `CCC(CC)C(=O)NC[C@H]1O[C@@H](CC(=O)N2CCC(C)CC2)[C@H](O)[C@@H]1O` was tested, and the activity % (negative = inhibition) was inactive: 9.85% [at 57.5 µM]. In the case of `O=C(C[C@@H]1CCNC[C@@H]1Cc1cc(CN2CCCCC2)on1)NCc1cccs1`, the activity % (negative = inhibition) is reported as inactive: -0.0675% [at 57.5 µM]. In the case of `CN(C)c1nc(-c2ccccc2)nc2c1CCN(C(=O)C1CCOC1)C2` (stereo not given), the activity % (negative = inhibition) is reported as inactive: 9.83%. `O=C(CCc1conc1-c1ccccc1F)NCc1cccc(C(F)(F)F)c1` was tested, and the activity % (negative = inhibition) was inactive: -7.72%. In the case of `COCCCN(CCC(=O)NCc1ccc2c(c1)OCO2)C(=O)c1cc(C)oc1C`, the activity % (negative = inhibition) is reported as inactive: -9.84%. `CN1CCCCCCN(C(=O)Cc2c[nH]c3ccccc23)[C@H]2CCC[C@H]2C1=O` was tested, and the activity % (negative = inhibition) was inactive: 2.1%. In the case of `CCN1C(=O)C2CC3(CCN(S(C)(=O)=O)CC3)CN2C1=O` (stereo not given), the activity % (negative = inhibition) is reported as inactive: 21.2%. In the case of `CCc1nnc(CN(CC)C(=O)c2cc(S(N)(=O)=O)ccc2F)o1`, the activity % (negative = inhibition) is reported as inactive: -0.28%. For `CCCc1nc(C(=O)NC(CC)c2ccc(S(C)(=O)=O)cc2)cs1` (stereo not given), the activity % (negative = inhibition) was inactive: 12.4%. `COc1ccc(O[C@H]2COCCN(S(=O)(=O)c3ccc(OC)cc3)C2)cc1` was tested, and the activity % (negative = inhibition) was inactive: 31.3% [at 57.5 µM]. In the case of `Cn1ccnc1-c1ccc(N2CC[C@@]3(O)CCN(S(C)(=O)=O)C[C@H]3C2)nn1`, the activity % (negative = inhibition) is reported as inactive: -3.73%. In the case of `N#Cc1ccc(C(=O)N2CCC(Cc3nc(-c4cccnc4)n[nH]3)C2)cc1` (stereo not given), the activity % (negative = inhibition) is reported as inactive: 3.07%. `Cc1cnc(CCNS(=O)(=O)c2cn(C)cn2)n1C1CCC1` was tested, and the activity % (negative = inhibition) was inactive: 29.9%. With `CCc1ccccc1NC(=O)N1CCC(Oc2ncccc2NC)C1` (stereo not given) the activity % (negative = inhibition) was inactive: 21.4%. With `O=C(NC1CCN(c2nnc3ccccn23)CC1)c1ccc(Cl)s1` the activity % (negative = inhibition) was inactive: 5.1%. For `COCCCNC(=O)c1cnc2c(c1)N(C(=O)Cc1cn(C)c3ccccc13)CCC2`, the activity % (negative = inhibition) was inactive: 13.8% [at 57.5 µM]. With `c1ccc(Cn2cc(CN3CCN(c4ccncc4)CC3)c(-c3cc4ccccc4o3)n2)cc1` the activity % (negative = inhibition) was inactive: 0.373%. With `CCOc1cccc(CNC(=O)c2nnn3c2COC(c2ccc(C)cc2)C3)c1` (stereo not given) the activity % (negative = inhibition) was inactive: 8.52%. With `COCCc1noc(C2Cc3ccccc3N2C(=O)Nc2ccc3c(c2)OCCO3)n1` (stereo not given) the activity % (negative = inhibition) was inactive: 20.3%. `COCCNC(=O)C[C@@H]1C[C@H]2O[C@H](CNCc3cccnc3OC)[C@@H](O)[C@H]2O1` was tested, and the activity % (negative = inhibition) was inactive: -1.12% [at 57.5 µM]. In the case of `N#CCn1ccn2nc3c(c2c1=O)CCCC3`, the activity % (negative = inhibition) is reported as inactive: 9.39%. `NC(=O)c1ccc(NC(=O)Cn2nc3c(cc2=O)CCCCC3)cc1` was tested, and the activity % (negative = inhibition) was inactive: 13.9%. With `O=C(c1ccc(C2CCCNC2)cc1)N1CCN(c2ccncc2)CC1` (stereo not given) the activity % (negative = inhibition) was inactive: 9.99%. `O=C1NCCCCCN(C(=O)C2CCC2)[C@H]2CCCC[C@@H]12` was tested, and the activity % (negative = inhibition) was inactive: -6.09%. In the case of `O=C(Cc1cc2c(cc1Cl)OCCO2)N[C@@H]1COCC[C@@H]1OCC1CC1`, the activity % (negative = inhibition) is reported as inactive: 2.65%. For `CCOC(=O)C1CCN(C(=O)c2cn3ccnc(-c4ccc(C)cc4)c3n2)CC1`, the activity % (negative = inhibition) was inactive: 17.4%. `NC(=O)CN1CCC(C(=O)N2CCCC(CO)(CC3CC3)C2)CC1` (stereo not given) was tested, and the activity % (negative = inhibition) was inactive: 10.6%. `Cc1cc2c(cc1C(=O)N[C@H](c1ccccn1)C1CC(O)C1)OCCO2` (stereo not given in full) was tested, and the activity % (negative = inhibition) was inactive: 7.26%. `CCOc1cc(CN2CCC(C(Cc3ccccc3F)N(C)C(=O)c3cccs3)CC2)ccc1O` (stereo not given) was tested, and the activity % (negative = inhibition) was inactive: 4.72%. `O=C(NC1CCCC1)N1CCC(Cc2nncn2CC2CC2)CC1` was tested, and the activity % (negative = inhibition) was inactive: 15.5%. With `O=C(C1CCOCC1)N1CCC(c2nc(C3CCOCC3)no2)CC1` the activity % (negative = inhibition) was inactive: -3%. With `c1ccc(-c2nc(CC3CCCNC3)no2)nc1` (stereo not given) the activity % (negative = inhibition) was inactive: 96.4%. `C#CCNC(=O)C1CCc2nnc(CNC(=O)c3ccc(Cl)cc3Cl)n21` (stereo not given) was tested, and the activity % (negative = inhibition) was inactive: 1.33%. In the case of `Cc1cnc(C(=O)N(C)C2CCc3nn(CC4CC4)c(=O)n3CC2)cn1` (stereo not given), the activity % (negative = inhibition) is reported as inactive: 7.74%. With `Cc1nc(C(C)C)ncc1C(=O)N1CCC2(CCCN(C)C2=O)C1` (stereo not given) the activity % (negative = inhibition) was inactive: -1.74%. In the case of `Cc1cc(=O)n(CC(=O)NC(C)CCc2ccccc2)c(N2CCc3ccccc3C2)n1` (stereo not given), the activity % (negative = inhibition) is reported as inactive: 1.39%. `CC1=NOC2(CCN([S+](=O)([O-])c3c(C)noc3C)C2)C1` (stereo not given) was tested, and the activity % (negative = inhibition) was inactive: 12.5% [at 57.5 µM]. With `CNC(=O)[C@@H]1CN(C(=O)CCc2ccc(OC)c(OC)c2)C[C@H]1CO` the activity % (negative = inhibition) was inactive: 9.06%. For `CCCCCCN(CCC(=O)NCCc1ccccc1)C(=O)c1cc(C)oc1C`, the activity % (negative = inhibition) was inactive: 2.34%. `CC(C(=O)N1CCN(c2cc(-c3ccccc3)[nH]n2)CC1)c1ccccc1` (stereo not given) was tested, and the activity % (negative = inhibition) was inactive: -7.08%. `COCCCn1c(=O)c(C(=O)NC2CC2)nc2cccnc21` was tested, and the activity % (negative = inhibition) was inactive: 12% [at 57.5 µM]. In the case of `CNC(=O)[C@@H]1CN(C(=O)c2ccc(OC)cc2C)C[C@H]1COC`, the activity % (negative = inhibition) is reported as inactive: -3.86%. With `CS(=O)(=O)Cc1ccc(-c2cccc(OCc3ccccc3F)c2)nc1` the activity % (negative = inhibition) was inactive: 46.1%.
